pIC50: −log10 of the molar value.
Legend:
MCF-7 = type: cell-based
MCF7-ADR = details: read-out: IC50 MCF7-ADR

COc1cc2c(c(OC)c1OC)-c1ccc(OC)c(=O)cc1[C@@H](NC(C)=O)CC2 [Colchicine]
pIC50 (MCF-7): 8.74
pIC50 (MCF7-ADR): 4.92
